Measurements: patent publication US20070082373A1
Results are given in words; binding and its absence hold for the method and conditions named. In cells and extracts the contact can be indirect. Some binding calls cover weakened binding; strength is not graded here.

Protein sequences, listed by entry. Tags and fused reporters are not part of them.
UniProt Q99KQ4: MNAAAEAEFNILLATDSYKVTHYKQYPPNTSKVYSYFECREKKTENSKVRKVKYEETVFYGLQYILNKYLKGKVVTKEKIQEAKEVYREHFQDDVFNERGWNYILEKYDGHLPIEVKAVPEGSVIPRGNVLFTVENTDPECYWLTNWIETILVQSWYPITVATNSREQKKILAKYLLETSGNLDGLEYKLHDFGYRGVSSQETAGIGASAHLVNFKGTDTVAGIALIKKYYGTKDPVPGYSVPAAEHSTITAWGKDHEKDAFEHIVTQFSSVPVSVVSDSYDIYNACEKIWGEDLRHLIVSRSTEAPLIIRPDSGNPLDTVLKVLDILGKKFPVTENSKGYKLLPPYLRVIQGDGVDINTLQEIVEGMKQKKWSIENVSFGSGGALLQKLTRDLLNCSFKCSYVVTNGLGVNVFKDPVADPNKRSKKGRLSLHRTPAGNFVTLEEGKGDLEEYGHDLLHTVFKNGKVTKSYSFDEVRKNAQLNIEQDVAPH

How the values were obtained:
[1] = molecular target: untagged extracellular Nampt (mouse) (UniProt Q99KQ4); test: co-immunoprecipitation from culture supernatants, Western blot (FIG. 16C)
[2] = molecular target: untagged extracellular Nampt (mouse) (UniProt Q99KQ4); test: co-immunoprecipitation from HIB-1B culture supernatants with anti-FLAG M2 beads, Western blot

With “C-terminally FLAG®-tagged mouse Nampt (Nampt-FLAG®) (from UniProt Q99KQ4 1-491) (enzyme)” the binding [1] was “binds” and the binding [2] was “binds”.
